Test results published in patent US12723078.
These are yes or no findings as the source states them, for the method shown. Some entries that bind do so weakly or less than the wild type.

Amino acid sequences for entries named in this document (tags omitted). A change or cut given only in a name is not applied to a line headed by its entry. Chains listed by the source or under a name are the forms on record and can include a tag or linker. Residues count along the entry.
UniProt Q8N423: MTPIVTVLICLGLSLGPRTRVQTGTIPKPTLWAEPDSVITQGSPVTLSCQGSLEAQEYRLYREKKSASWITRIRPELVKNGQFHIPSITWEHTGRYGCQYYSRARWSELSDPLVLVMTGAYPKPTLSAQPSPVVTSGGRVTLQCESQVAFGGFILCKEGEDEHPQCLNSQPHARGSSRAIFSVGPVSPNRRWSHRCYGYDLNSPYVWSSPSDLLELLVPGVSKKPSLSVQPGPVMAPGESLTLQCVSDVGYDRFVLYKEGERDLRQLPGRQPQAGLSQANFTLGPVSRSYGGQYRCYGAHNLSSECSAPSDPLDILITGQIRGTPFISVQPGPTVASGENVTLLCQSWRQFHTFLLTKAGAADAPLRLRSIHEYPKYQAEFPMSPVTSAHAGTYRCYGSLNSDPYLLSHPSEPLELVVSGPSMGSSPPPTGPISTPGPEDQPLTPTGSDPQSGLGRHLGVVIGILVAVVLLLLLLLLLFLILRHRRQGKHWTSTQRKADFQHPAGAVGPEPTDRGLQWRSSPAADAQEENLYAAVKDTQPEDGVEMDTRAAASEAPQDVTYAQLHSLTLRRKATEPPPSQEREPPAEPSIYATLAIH
LILRB2 on reporter cells: residues 22-597 of Q8N423
LILRB2: residues 22-460 of Q8N423
UniProt Q6PI73: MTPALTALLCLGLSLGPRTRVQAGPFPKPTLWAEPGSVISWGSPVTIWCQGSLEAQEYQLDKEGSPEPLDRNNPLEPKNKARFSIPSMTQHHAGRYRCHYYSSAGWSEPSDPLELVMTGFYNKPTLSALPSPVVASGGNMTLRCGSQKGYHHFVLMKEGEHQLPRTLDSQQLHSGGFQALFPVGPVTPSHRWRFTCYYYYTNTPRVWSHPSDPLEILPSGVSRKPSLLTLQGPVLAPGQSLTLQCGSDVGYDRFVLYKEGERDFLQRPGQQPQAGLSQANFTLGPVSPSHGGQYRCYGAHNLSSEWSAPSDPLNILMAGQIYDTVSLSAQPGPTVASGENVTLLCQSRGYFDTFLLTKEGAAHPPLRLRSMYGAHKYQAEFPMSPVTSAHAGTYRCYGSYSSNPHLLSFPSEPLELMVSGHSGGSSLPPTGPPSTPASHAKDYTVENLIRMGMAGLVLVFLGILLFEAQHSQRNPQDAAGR
LILRA6 on reporter cells: residues 24-481 of Q6PI73
LILRA6: residues 24-447 of Q6PI73
UniProt A6NI73: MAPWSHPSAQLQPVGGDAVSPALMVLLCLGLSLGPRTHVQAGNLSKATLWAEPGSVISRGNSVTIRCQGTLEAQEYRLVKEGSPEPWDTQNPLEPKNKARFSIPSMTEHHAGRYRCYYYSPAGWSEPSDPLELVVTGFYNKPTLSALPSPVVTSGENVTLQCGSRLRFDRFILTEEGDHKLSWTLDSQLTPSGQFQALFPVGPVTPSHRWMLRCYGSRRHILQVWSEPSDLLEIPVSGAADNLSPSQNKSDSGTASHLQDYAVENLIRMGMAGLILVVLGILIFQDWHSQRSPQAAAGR
LILRA5 on reporter cells: residues 42-299 of A6NI73
LILRA5: residues 42-268 of A6NI73
UniProt O75022, residues 24-631: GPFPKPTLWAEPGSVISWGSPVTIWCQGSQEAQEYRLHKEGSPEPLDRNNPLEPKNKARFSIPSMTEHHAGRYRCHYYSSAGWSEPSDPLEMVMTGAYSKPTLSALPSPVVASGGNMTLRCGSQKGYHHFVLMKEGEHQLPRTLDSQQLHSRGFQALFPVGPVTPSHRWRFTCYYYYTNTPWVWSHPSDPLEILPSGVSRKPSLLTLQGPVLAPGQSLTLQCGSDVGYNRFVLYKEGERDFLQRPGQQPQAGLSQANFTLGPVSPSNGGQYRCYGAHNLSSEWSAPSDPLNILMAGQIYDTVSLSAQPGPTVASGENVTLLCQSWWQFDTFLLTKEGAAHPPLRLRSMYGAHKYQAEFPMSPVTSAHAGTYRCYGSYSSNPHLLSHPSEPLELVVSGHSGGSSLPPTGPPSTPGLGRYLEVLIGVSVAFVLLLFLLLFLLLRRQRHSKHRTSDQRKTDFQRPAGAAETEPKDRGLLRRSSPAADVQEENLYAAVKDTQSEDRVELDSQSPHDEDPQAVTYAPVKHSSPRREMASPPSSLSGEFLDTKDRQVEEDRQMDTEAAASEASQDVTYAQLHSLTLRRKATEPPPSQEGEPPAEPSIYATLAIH
UniProt Q8NHJ6, residues 22-448: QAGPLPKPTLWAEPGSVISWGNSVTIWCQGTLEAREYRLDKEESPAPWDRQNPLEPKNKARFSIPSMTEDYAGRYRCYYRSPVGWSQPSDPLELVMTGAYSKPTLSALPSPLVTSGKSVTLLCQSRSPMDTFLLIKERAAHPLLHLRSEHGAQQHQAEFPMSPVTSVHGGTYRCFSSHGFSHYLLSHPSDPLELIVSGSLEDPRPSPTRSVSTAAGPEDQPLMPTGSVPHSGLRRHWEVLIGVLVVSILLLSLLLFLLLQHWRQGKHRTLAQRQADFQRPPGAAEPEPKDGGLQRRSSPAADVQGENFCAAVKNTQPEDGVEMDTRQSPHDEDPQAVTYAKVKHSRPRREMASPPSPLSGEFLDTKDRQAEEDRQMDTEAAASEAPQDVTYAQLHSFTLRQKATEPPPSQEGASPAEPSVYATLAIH
UniProt Q8N6C8, residues 24-439: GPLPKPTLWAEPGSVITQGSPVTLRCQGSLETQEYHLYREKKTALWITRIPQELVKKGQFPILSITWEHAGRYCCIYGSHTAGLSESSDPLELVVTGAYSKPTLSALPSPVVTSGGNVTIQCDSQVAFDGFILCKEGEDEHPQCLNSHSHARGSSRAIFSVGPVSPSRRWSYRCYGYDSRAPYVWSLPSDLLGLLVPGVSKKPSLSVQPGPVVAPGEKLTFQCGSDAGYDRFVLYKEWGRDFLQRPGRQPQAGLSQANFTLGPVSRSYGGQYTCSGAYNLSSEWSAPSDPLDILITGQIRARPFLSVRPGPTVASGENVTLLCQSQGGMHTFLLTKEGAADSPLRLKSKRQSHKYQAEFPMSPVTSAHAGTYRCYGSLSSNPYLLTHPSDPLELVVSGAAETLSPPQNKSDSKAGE
UniProt P59901, residues 24-499: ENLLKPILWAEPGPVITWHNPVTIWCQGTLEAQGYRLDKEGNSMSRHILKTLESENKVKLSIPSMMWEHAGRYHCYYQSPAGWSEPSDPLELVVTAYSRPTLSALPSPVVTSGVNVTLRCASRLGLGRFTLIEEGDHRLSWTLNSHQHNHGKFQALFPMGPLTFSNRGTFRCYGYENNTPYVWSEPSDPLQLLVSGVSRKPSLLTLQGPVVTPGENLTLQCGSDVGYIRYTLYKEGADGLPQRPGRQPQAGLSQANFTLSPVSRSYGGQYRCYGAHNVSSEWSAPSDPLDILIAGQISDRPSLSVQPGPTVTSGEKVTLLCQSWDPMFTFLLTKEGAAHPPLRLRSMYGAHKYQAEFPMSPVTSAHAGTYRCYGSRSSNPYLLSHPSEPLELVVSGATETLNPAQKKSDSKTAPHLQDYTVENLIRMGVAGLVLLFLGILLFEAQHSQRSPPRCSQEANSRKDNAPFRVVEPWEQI
UniProt O75023, residues 24-590: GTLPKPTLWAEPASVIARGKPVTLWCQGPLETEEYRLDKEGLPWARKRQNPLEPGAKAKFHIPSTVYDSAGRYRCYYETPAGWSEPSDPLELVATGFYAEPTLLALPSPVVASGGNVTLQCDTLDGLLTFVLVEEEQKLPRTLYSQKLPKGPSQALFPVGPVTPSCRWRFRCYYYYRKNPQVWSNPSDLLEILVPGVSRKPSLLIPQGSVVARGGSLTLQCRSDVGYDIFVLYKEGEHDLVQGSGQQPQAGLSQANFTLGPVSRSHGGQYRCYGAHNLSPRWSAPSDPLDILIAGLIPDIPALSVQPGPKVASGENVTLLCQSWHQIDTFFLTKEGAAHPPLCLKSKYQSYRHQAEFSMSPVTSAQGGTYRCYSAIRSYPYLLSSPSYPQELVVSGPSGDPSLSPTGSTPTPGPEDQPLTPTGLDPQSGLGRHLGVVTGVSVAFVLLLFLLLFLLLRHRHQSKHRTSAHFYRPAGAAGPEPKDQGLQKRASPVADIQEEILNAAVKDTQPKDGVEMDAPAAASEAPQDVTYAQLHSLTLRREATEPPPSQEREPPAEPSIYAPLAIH
M35 (Q8NHL6, form named): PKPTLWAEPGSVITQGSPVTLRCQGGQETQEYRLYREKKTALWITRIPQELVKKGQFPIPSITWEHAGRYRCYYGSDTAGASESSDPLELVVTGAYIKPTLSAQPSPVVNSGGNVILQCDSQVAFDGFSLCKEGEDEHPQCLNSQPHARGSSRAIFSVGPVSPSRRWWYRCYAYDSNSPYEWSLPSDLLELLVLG

Columns and labels:
LILRB2 (human) [1] = molecular target: LILRB2 (human) (UniProt Q8N423); experiment: Octet RED96, cross-reactivity table
LILRA6 (human) [2] = molecular target: LILRA6 (human) (UniProt Q6PI73); experiment: Octet RED96, cross-reactivity table
LILRA5 (human) [3] = molecular target: LILRA5 (human) (UniProt A6NI73); experiment: Octet RED96, cross-reactivity table
LILRB3 [4] = experiment: Octet RED96, cross-reactivity table
LILRA5 on reporter cells [5] = molecular target: LILRA5 on reporter cells (UniProt A6NI73); experiment: flow cytometry on 2B4 cells expressing the LILR, PE
LILRB3 on reporter cells [6] = molecular target: LILRB3 on reporter cells (UniProt O75022); experiment: as above
LILRB2 on reporter cells [7] = molecular target: LILRB2 on reporter cells (UniProt Q8N423); experiment: as above
LILRA6 on reporter cells [8] = molecular target: LILRA6 on reporter cells (UniProt Q6PI73); experiment: as above
LILRB4 on reporter cells [9] = molecular target: LILRB4 on reporter cells (UniProt Q8NHJ6); experiment: as above
LILRA3 on reporter cells [10] = molecular target: LILRA3 on reporter cells (UniProt Q8N6C8); experiment: as above
LILRA4 on reporter cells [11] = molecular target: LILRA4 on reporter cells (UniProt P59901); experiment: as above
LILRB5 on reporter cells [12] = molecular target: LILRB5 on reporter cells (UniProt O75023); experiment: as above
LILRA5 on reporter cells [13] = molecular target: LILRA5 on reporter cells (UniProt A6NI73); experiment: flow cytometry on LILR reporter cells, anti-rabbit IgG PE
LILRB3 on reporter cells [14] = molecular target: LILRB3 on reporter cells (UniProt O75022); experiment: as above
LILRB2 on reporter cells [15] = molecular target: LILRB2 on reporter cells (UniProt Q8N423); experiment: as above
LILRA6 on reporter cells [16] = molecular target: LILRA6 on reporter cells (UniProt Q6PI73); experiment: as above
LILRB4 on reporter cells [17] = molecular target: LILRB4 on reporter cells (UniProt Q8NHJ6); experiment: as above
LILRA3 on reporter cells [18] = molecular target: LILRA3 on reporter cells (UniProt Q8N6C8); experiment: as above
LILRA4 on reporter cells [19] = molecular target: LILRA4 on reporter cells (UniProt P59901); experiment: as above
LILRB5 on reporter cells [20] = molecular target: LILRB5 on reporter cells (UniProt O75023); experiment: as above
[21] = molecular target: LILRB1-D1D2 Fc fusion protein (human) (UniProt Q8NHL6); experiment: ELISA on LILRB1 domain-Fc fusion proteins, one condition, concentration not given
LILRB2 (human) [22] = molecular target: LILRB2 (human) (UniProt Q8N423); experiment: ELISA
LILRA6 (human) [23] = molecular target: LILRA6 (human) (UniProt Q6PI73); experiment: ELISA
LILRA5 (human) [24] = molecular target: LILRA5 (human) (UniProt A6NI73); experiment: ELISA
LILRB3 [25] = experiment: ELISA
[26] = molecular target: LILRB1 expressed on cell surface (human) (UniProt Q8NHL6); experiment: flow cytometry on LILR reporter cells
LILRA5 on reporter cells [27] = molecular target: LILRA5 on reporter cells (UniProt A6NI73); experiment: flow cytometry on LILR reporter cells, anti-Rabbit-IgG PE
LILRB3 on reporter cells [28] = molecular target: LILRB3 on reporter cells (UniProt O75022); experiment: as above
LILRB2 on reporter cells [29] = molecular target: LILRB2 on reporter cells (UniProt Q8N423); experiment: as above
LILRA6 on reporter cells [30] = molecular target: LILRA6 on reporter cells (UniProt Q6PI73); experiment: as above
LILRB4 on reporter cells [31] = molecular target: LILRB4 on reporter cells (UniProt Q8NHJ6); experiment: as above
LILRA3 on reporter cells [32] = molecular target: LILRA3 on reporter cells (UniProt Q8N6C8); experiment: as above
LILRA4 on reporter cells [33] = molecular target: LILRA4 on reporter cells (UniProt P59901); experiment: as above
LILRB5 on reporter cells [34] = molecular target: LILRB5 on reporter cells (UniProt O75023); experiment: as above
[35] = molecular target: LILRB1-D1D2 Fc fusion protein (human) (UniProt Q8NHL6); experiment: ELISA on LILRB1-Fc fusion proteins with different domain deletion
[36] = molecular target: LILRB1 expressed on cell surface (human) (UniProt Q8NHL6); experiment: flow cytometry on LILR reporter cells, 0.5 µg/mL rabbit B1-176, anti-Rabbit-IgG PE
[37] = molecular target: LILRB1-D1D2 Fc fusion protein (human) (UniProt Q8NHL6); experiment: ELISA on LILRB1-D1D2 Fc fusion proteins
M35 (human) = M35 (human) (UniProt Q8NHL6); experiment: ELISA on LILRB1-D1D2 Fc fusion proteins
[38] = molecular target: LILRB1 expressed on cell surface (human) (UniProt Q8NHL6); experiment: flow cytometry on LILR reporter cells, 0.5 µg/mL rabbit B1-176, anti-rabbit IgG PE
[39] = molecular target: LILRB1 expressed on cell surface (human) (UniProt Q8NHL6); experiment: flow cytometry on 2B4 cells expressing the LILR, PE; antibody concentration not given

B1: B1-176 rabbit antibody (antibody, V domains shown)
VH: QSLEESEGGLVKPGGTLTLTCTASGFSFSSSYCMCWVRQAPGKGLELIACIYTDSSGATYYASWAKGRFTISKSSSTTITLQMTSLTAADTATYFCARGWDYEDPGYTDTTYFSLWGPGTLVTVSS
VL: ELDLTQTPSSVEAAVGGTVTIKCQASQTIYTNLAWYQQKPGQPPNLLIYAASTLASGVSSRFKGSGSGTEFTLTISDLECADAATYYCQSYYGSSTTGNGFGGGTEVEIK
binding (LILRB2 (human) [1]): no binding (tested: not given)
binding (LILRA6 (human) [2]): no binding (tested: not given)
binding (LILRA5 (human) [3]): no binding (tested: not given)
binding (LILRB3 [4]): no binding (tested: not given)
binding (LILRA5 on reporter cells [5]): no binding (tested: not given)
binding (LILRB3 on reporter cells [6]): no binding (tested: not given)
binding (LILRB2 on reporter cells [7]): no binding (tested: not given)
binding (LILRA6 on reporter cells [8]): no binding (tested: not given)
binding (LILRB4 on reporter cells [9]): no binding (tested: not given)
binding (LILRA3 on reporter cells [10]): no binding (tested: not given)
binding (LILRA4 on reporter cells [11]): no binding (tested: not given)
binding (LILRB5 on reporter cells [12]): no binding (tested: not given)
binding (LILRA5 on reporter cells [13]): no binding (tested: 0.5 µg/mL)
binding (LILRB3 on reporter cells [14]): no binding (tested: 0.5 µg/mL)
binding (LILRB2 on reporter cells [15]): no binding (tested: 0.5 µg/mL)
binding (LILRA6 on reporter cells [16]): no binding (tested: 0.5 µg/mL)
binding (LILRB4 on reporter cells [17]): no binding (tested: 0.5 µg/mL)
binding (LILRA3 on reporter cells [18]): no binding (tested: 0.5 µg/mL)
binding (LILRA4 on reporter cells [19]): no binding (tested: 0.5 µg/mL)
binding (LILRB5 on reporter cells [20]): no binding (tested: 0.5 µg/mL)
binding [21]: binds
binding (LILRB2 (human) [22]): no binding (tested: 10^3.0 ng/mL (1000 ng/mL))
binding (LILRA6 (human) [23]): no binding (tested: 10^3.0 ng/mL (1000 ng/mL))
binding (LILRA5 (human) [24]): no binding (tested: 10^3.0 ng/mL (1000 ng/mL))
binding (LILRB3 [25]): no binding (tested: 10^3.0 ng/mL (1000 ng/mL))
binding [26]: binds
binding (LILRA5 on reporter cells [27]): no binding (tested: 0.5 µg/mL)
binding (LILRB3 on reporter cells [28]): no binding (tested: 0.5 µg/mL)
binding (LILRB2 on reporter cells [29]): no binding (tested: 0.5 µg/mL)
binding (LILRA6 on reporter cells [30]): no binding (tested: 0.5 µg/mL)
binding (LILRB4 on reporter cells [31]): no binding (tested: 0.5 µg/mL)
binding (LILRA3 on reporter cells [32]): no binding (tested: 0.5 µg/mL)
binding (LILRA4 on reporter cells [33]): no binding (tested: 0.5 µg/mL)
binding (LILRB5 on reporter cells [34]): no binding (tested: 0.5 µg/mL)
binding [35]: binds
binding [36]: binds
binding [37]: binds
binding (M35 (human)): no binding (tested: 10^3.5 ng/mL (about 3000 ng/mL))
binding [38]: binds
binding [39]: binds
